Reference: article PMC6630525

Experiments:
[1] = target: T1, AtNRP1 NT/CT (AtNRP1 residues 14-226) (Arabidopsis thaliana) (UniProt Q9CA59); assay: native gel or EMSA; native polyacrylamide gel; increasing amounts of H2A-H2B dimer titrated into a constant amount (5 µM) of AtNRP1/2 proteins; both purified
T1 sequence: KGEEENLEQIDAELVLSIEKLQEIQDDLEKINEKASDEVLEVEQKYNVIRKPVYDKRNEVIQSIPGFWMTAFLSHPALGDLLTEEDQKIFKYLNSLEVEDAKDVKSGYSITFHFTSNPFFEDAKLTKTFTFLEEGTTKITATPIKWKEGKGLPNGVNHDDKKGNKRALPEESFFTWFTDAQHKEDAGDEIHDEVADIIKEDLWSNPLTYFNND

[2] = target: T2, AtNRP2 NT/CT (AtNRP2 residues 14-223) (Arabidopsis thaliana) (UniProt Q8LC68); assay: as above
T2 sequence: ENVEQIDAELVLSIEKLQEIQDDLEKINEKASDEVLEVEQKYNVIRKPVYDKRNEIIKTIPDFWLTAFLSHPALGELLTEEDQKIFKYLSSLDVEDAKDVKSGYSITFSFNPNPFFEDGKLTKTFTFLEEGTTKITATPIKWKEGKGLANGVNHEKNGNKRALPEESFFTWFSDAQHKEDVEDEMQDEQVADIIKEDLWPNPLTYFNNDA

binding [1]: binds
binding [2]: binds
Substance: Arabidopsis thaliana histone H2A-H2B dimer (complex)

No constants are given. Whether binding was seen depends on the method and setting. A result given as binding can be weak or reduced; the word gives no strength.
